Binding data for one substance are collected here from publication PMC8869194.

Amino acid sequences for entries named in this document (tags omitted). A change or cut given only in a name is not applied to a line headed by its entry.
UniProt Q60613: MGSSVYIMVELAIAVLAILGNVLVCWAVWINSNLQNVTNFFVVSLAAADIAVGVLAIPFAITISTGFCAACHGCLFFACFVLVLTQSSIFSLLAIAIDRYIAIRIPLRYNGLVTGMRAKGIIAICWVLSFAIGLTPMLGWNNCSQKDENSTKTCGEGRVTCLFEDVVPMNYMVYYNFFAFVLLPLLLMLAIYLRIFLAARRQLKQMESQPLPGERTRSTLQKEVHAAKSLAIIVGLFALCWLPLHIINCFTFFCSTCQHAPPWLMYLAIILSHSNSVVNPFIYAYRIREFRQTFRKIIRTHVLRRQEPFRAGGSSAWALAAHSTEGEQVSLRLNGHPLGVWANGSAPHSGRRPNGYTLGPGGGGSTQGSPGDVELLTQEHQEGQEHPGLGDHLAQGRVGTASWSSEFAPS

The target of assay [1] is T1, adenosine A3 receptor (mouse (endogenous in primary neurons and microglia)) (UniProt Q61618).
T1 sequence: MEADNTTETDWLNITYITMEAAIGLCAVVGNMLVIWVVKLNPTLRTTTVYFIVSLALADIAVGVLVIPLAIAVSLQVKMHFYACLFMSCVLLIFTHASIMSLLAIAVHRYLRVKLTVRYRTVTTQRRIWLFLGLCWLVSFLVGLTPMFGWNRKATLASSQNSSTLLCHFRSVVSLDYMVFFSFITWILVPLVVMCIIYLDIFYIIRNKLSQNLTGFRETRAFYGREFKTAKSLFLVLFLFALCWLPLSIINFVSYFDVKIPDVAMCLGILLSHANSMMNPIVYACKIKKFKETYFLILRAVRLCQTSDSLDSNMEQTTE
Put plainly: proximity ligation; in situ PLA (Duolink) in fixed, permeabilised primary microglia from mouse pups: resting, activated with LPS and IFN-gamma, and from APPSw,Ind transgenic mice; mouse anti-A2AR and rabbit anti-A3R; negative control without anti-A3R.

Assay [2] addresses T1, adenosine A3 receptor (mouse (endogenous in primary neurons and microglia)). Put plainly: proximity ligation; in situ PLA (Duolink) in fixed, permeabilised primary striatal, hippocampal and cortical neurons from C57BL/6J mouse fetuses; mouse anti-A2AR and rabbit anti-A3R; negative control without anti-A3R.

Results are given in words; binding and its absence hold for the method and conditions named. In cells and extracts the contact can be indirect. Some results given as binding are weak or reduced against the parent protein; the word gives no strength.

Consider “adenosine A2A receptor (from UniProt Q60613 1-410)”, for which the binding result in assay [1] and in assay [2] was “binds” each time.
